Data published in US20080305187A1, “Use of Parathyroid Hormone for Treating Periodontal Disease and for Other Dental Applications” (priority 2005, published 2008).
At least one peptide structure holds a part that was inferred or is arguable (an end, a ring closure or a residue).

Tests used:
Assay type in all cases: in vivo, human
[1] = tested on: patient with adult periodontitis; assay: Treatment of patient with periodontal disease prior to dental implant therapy; details: person, 20 μg once-daily subcutaneous for 3 months prior to implant surgery
Description: A person presents with a history of adult periodontitis. The patient has experienced significant alveolar bone loss confirmed radiographically, and has a number of tooth sites with pocket probing depth measurements of about 7 mm. The patient has discussed with their dentist possible extraction of severely-affected teeth and their replacement with dental implants, but the prospects for success are diminished in view of the bone loss that has occurred. Standard periodontal care is provided, including scaling and root planning, and those teeth with poor prognosis are extracted. Prior to implant surgery, the patient is administered 20 μg of hPTH(1-34) once-daily by subcutaneous injection for 3 months prior to implant surgery.

[2] = tested on: patient with advanced oral bone loss as a result of periodontal disease; assay: Dental implant applications; details: person, 25 μg once daily subcutaneous
[3] = tested on: patient with early-onset periodontitis; assay: PTH administration to repair bony defects associated with early onset periodontitis; details: person, 30 μg per day subcutaneous with debridement, after 6 months treatment
[4] = tested on: patient with aggressive juvenile periodontal disease; assay: Treatment of early-onset periodontal disease; details: child, 10 μg per day three days per week for 3 months, then 20 μg per day once daily for 3 months, subcutaneous
[5] = tested on: patient with severe periodontal disease; assay: Treatment of patient with moderate to severe periodontal disease; details: postmenopausal person, 15 μg once per day subcutaneously for 12 months, with calcium and vitamin D
[6] = tested on: patient with aggressive periodontal disease; assay: PTH(1-34) administration in a patient with adult-onset periodontal disease; details: smoker, 30 μg per day subcutaneous once daily, after 12 months

Q: How did the “alveolar BMD (radiographic analysis)” value [1] turn out when `CC[C@H](C)[C@H](NC(=O)[C@H](CCC(=O)O)NC(=O)[C@H](CO)NC(=O)[C@@H](NC(=O)[C@@H](N)CO)C(C)C)C(=O)N[C@@H](CCC(N)=O)C(=O)N[C@@H](CC(C)C)C(=O)N[C@@H](CCSC)C(=O)N[C@@H](Cc1c[nH]cn1)C(=O)N[C@@H](CC(N)=O)C(=O)N[C@@H](CC(C)C)C(=O)NCC(=O)N[C@@H](CCCCN)C(=O)N[C@@H](Cc1c[nH]cn1)C(=O)N[C@@H](CC(C)C)C(=O)N[C@@H](CC(N)=O)C(=O)N[C@@H](CO)C(=O)N[C@@H](CCSC)C(=O)N[C@@H](CCC(=O)O)C(=O)N[C@@H](CCCNC(=N)N)C(=O)N[C@H](C(=O)N[C@@H](CCC(=O)O)C(=O)N[C@@H](Cc1c[nH]c2ccccc12)C(=O)N[C@@H](CC(C)C)C(=O)N[C@@H](CCCNC(=N)N)C(=O)N[C@@H](CCCCN)C(=O)N[C@@H](CCCCN)C(=O)N[C@@H](CC(C)C)C(=O)N[C@@H](CCC(N)=O)C(=O)N[C@@H](CC(=O)O)C(=O)N[C@H](C(=O)N[C@@H](Cc1c[nH]cn1)C(=O)N[C@@H](CC(N)=O)C(=O)N[C@@H](Cc1ccccc1)C(=O)O)C(C)C)C(C)C` [hPTH(1-34), human PTH(1-34)] was run?
A: increased alveolar BMD

Q: And the “pocket probing depths around the remaining teeth” value [1]?
A: reduced pocket probing depths

Q: What about the “time until implants are stabilized and functional after placement” value ([2]; 3 months before and 3 months after implants) of the same compound?
A: ≤ 3 months

Q: What about the “retention of remaining teeth” value ([2]; 24 months of additional observation) of the same compound?
A: retains their remaining teeth

Q: What about the tooth stabilization [3] of the same compound?
A: tooth stabilization

Q: And the “bone infill around affected teeth” value [4]?
A: bone infill around affected teeth

Q: What about the clinical attachment levels [4] of the same compound?
A: improvement in their clinical attachment levels

Q: And the “tooth loss during follow up” value [4]?
A: No more teeth are lost

Q: And the “alveolar bone (radiographic analysis)” value [5]?
A: restoration of lost alveolar bone

Q: What about the pocket probing depths [5] of the same compound?
A: reduced pocket probing depths

Q: What about the pocket depths [6] of the same compound?
A: marked improvement, with fewer sites exhibiting deep pocketing
